Laboratory results: PubChem BioAssay AID624297 (National Center for Advancing Translational Sciences (NCATS), 2012)
In all, about 340,000 compounds went through this assay and about 6,200 (1.8%) were called active. This list was built around the results that the source calls inconclusive (neither active nor inactive); the mix of calls is not that of the screen. Calls come from the whole dose curve; as a rule, active = well fitted activation curve with a large enough effect; inconclusive = small, poorly fitted or top-dose-only effect; inactive = no such curve, though single readings can be large or run the other way. A potency beside an inconclusive call is a rough fit, not a confirmed value.

test: A quantitative high throughput screen for small molecules that induce DNA re-replication in SW480 colon adenocarcinoma cells.; note: nearly all actives have a fitted effect of over 55% in size; for re-replication activation: % of control where 0% means no effect; settings: Hoechst DNA content imaging, 48 h; re-replication activation: at 46.1 µM (top of the series) unless noted
Summary of the method: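 Per well, 250 cells were exposed to pinned compound for 48 hr. Nuclear DNA was visualised with Hoechst (40 min, 37 C) and total object intensity recorded by fluorescence scanning.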
Potency is the fitted concentration of half-maximal effect.

Row | Compound | re-replication activation | Potency
1 | CCOc1ccc(NC(=O)/C=C/c2ccc(OC)cc2)c([N+](=O)[O-])c1 | inactive: -7.05% | –
2 | CNC(=O)c1c(NC(=O)c2ccc(S(=O)(=O)N3CCCCC3C)cc2)sc2c1CCN(C)C2 (stereo unspecified) | – | inconclusive: 23.1 µM [activator, single point]
3 | CC(C)NC(=O)C1CCCN(S(=O)(=O)c2cccc3nonc23)C1 (stereo unspecified) | inactive: -12.2% | –
4 | CCOC(=O)N1CCC(NC(=O)Cn2cccc2C(=O)c2ccccc2)CC1 | – | inconclusive: 4.61 µM [activator, full curve]
5 | C[C@H]1NC(=O)[C@@]2(C)[C@H](c3ccccc3)[C@H]3COc4ccccc4[C@@H]3N2C1=O | inactive: 10.9% | –
6 | OC(COc1ccc(CNCCc2ccccc2F)cc1)CN1CCCCC1 (stereo unspecified) | – | inconclusive: 0.326 µM [activator, partial curve, poor fit]
7 | Cc1ccc2nc(C)c(C(=O)NN=C3CCCCCC3)n2c1 | – | inconclusive: 20.6 µM [activator, single point]
8 | COC(=O)C(Cc1c[nH]c2ccccc12)NC(=O)c1cc(-c2ccc(OC)c(OC)c2)oc1C (stereo unspecified) | inactive: 17.1% | –
9 | FC(F)(F)c1ccc(CN2C[C@@H]3C(c4ccc(C(F)(F)F)cc4)C4(c5cccnc5)CC3(C4)[C@H]2c2ccccc2)cc1 (stereo partly specified) | – | inconclusive: 3.66 µM [activator, partial curve, poor fit]
10 | CCOc1ccc(S(=O)(=O)n2c(C)nc3ccccc32)cc1 | – | inconclusive: 29.1 µM [activator, single point]
11 | Cc1ccc(NC(=O)NNC(=O)c2cc3ccccc3cc2O)cc1 | – | inconclusive: 0.0046 µM [activator, full curve, poor fit]
12 | COc1cc(CNc2cccc(C(=O)O)c2)cc(Br)c1OCC(=O)NC(C)(C)C | – | inconclusive: 0.116 µM [activator, full curve, poor fit]
13 | CCc1ccc(-c2cc(C)no2)cc1S(=O)(=O)NCCc1ccccc1 | – | inconclusive: 2.06 µM [activator, single point]
14 | CN(CC(=O)NCCc1ccccc1)S(=O)(=O)c1cccc2nsnc12 | – | inconclusive: 0.0116 µM [activator, full curve, poor fit]
15 | COc1ccc(-c2cc(=O)c3cc(F)ccc3[nH]2)cc1 | inactive: 13.4% | –
16 | Cn1nc(-c2ccc(Cl)cc2)cc1NC(=O)CSCC(=O)O | inactive: -12.9% | –
17 | COC(=O)Cc1ccc(NC(=S)N2CCN(c3ccc(F)cc3)CC2)cc1 | inactive: -97% | –
18 | CC(C)(C)c1ccc(/C=C/C(=O)NC2CCS(=O)(=O)C2)cc1 (stereo unspecified) | – | inconclusive: 18.4 µM [activator, single point]
19 | Cc1ccccc1C(=O)N1CCN(c2ccc(NC(=O)c3ccc([N+](=O)[O-])o3)cc2)CC1 | – | active: 1.64 µM
20 | COc1ccc(/C=N/N2C(=O)CSC2=S)cc1Br | inactive: -3.78% | –
21 | O=C(Nc1nc(-c2nc3ccccc3s2)cs1)c1ccco1 | inactive: -12.8% | –
22 | COc1ccc(-c2onc3ccc(C(=O)/C=C/N(C)C)cc23)cc1 | – | active: 16.4 µM
23 | O=C(CCN1C(=O)/C(=C/c2ccccc2)SC1=S)Nc1ccccn1 | inactive: -10.2% | –
24 | COc1cc(CC(=O)NC2CCCc3ccccc32)cc(OC)c1OC (stereo unspecified) | inactive: -4.37% | –

Row | Compound | re-replication activation | Potency
25 | CC(C)CC(COCc1ccc(Cl)cc1)N1CCN(C(=O)c2ccc(Cl)cc2Cl)CCC1=O (stereo unspecified) | – | inconclusive: 18.4 µM [activator, partial curve, poor fit]
26 | O=C(COC(=O)c1ccc(F)c([N+](=O)[O-])c1)NC(=O)NCc1ccccc1 | – | inconclusive: 23.1 µM [activator, single point]
27 | CCN(C[C@H]1N[C@@](CC)(C(=O)OC)[C@H]2C(=O)N(Cc3ccccc3)C(=O)[C@@H]12)S(=O)(=O)c1ccc(OC)cc1 | inactive: 16.6% [at 9.22 µM] | –
28 | O=C(OCn1ncc(Cl)c(Cl)c1=O)c1cccc(C(F)(F)F)c1 | – | active: 5.8 µM
29 | CCn1c(-c2ccoc2C)n[nH]c1=S | – | inconclusive: 29.1 µM [activator, single point]
30 | COc1ccc(CC(=O)OCC(=O)NCc2ccc(C)cc2)cc1OC | inactive: 0.758% | –
31 | C/C(=N\OCC(=O)N/N=C/c1ccc(C)cc1O)c1cccs1 | – | active: 6.51 µM
32 | O=c1c2oc3ccccc3c2ncn1Cc1cccc(Cl)c1 | – | inconclusive: 0.651 µM [activator, single point]
33 | O=C1Cc2ccccc2C(c2ccc(Br)cc2)N1 (stereo unspecified) | – | inconclusive: 32.6 µM [activator, partial curve, poor fit]
34 | O=c1c2ccccc2[nH]c(=S)n1CCN1CCC(=C(c2ccc(F)cc2)c2ccc(F)cc2)CC1 | – | inconclusive: 8.2 µM [activator, partial curve, poor fit]
35 | C/C(=N\NC(=O)c1cnccn1)c1ccc([N+](=O)[O-])cc1 | – | inconclusive: 18.4 µM [activator, single point]
36 | Nc1c(S(=O)(=O)c2cccs2)c2nc3ccccc3nc2n1Cc1ccc2c(c1)OCO2 | – | inconclusive: 16.4 µM [activator, partial curve, poor fit]
37 | CC(=O)Nc1ccc(-c2csc(NNC(=O)c3ccc(C)cc3)n2)cc1 | inactive: 14% | –
38 | Cc1cc(=O)[nH]c(-n2[nH]c(C)cc2=O)n1 | – | inconclusive: 25.9 µM [activator, partial curve, poor fit]
39 | CC(C)(C)NC(=O)CSc1ncnc2c1cnn2-c1ccccc1 | – | inconclusive: 25.9 µM [activator, single point]
40 | CCCn1c(=O)n(C)c(=O)c2c(SCC(=O)NCC(c3ccccc3)N(C)C)nc(CC(C)C)nc21 (stereo unspecified) | – | inconclusive: 20.6 µM [activator, single point]
41 | CN(Cc1nc(-c2ccc(Cl)cc2)no1)C(=O)CCN1C(=O)[C@H]2CC=CC[C@H]2C1=O | – | inconclusive: 29.1 µM [activator, single point]
42 | CCOC(=O)C1C(=O)OC(C)(C)C1C(CC)C(=O)c1c(C)cc(C)cc1C (stereo unspecified) | inactive: -11% | –
43 | COc1cccc(Cn2c(=O)c3[nH]cnc3n(-c3ccccc3C)c2=O)c1 | inactive: -13.4% | –
44 | CC(=O)NCCCCCCNC(C)=O | – | inconclusive: 1.26 µM [activator, single point]
45 | O=C1Nc2ccc(Br)cc2/C1=C/C1CC=CCC1 (stereo unspecified) | – | inconclusive: 29.1 µM [activator, single point]
46 | O=[N+]([O-])c1ccc(N/N=C/c2ccccc2)c(F)c1 | – | inconclusive: 20.6 µM [activator, single point]
47 | c1cnc2c(C3NCCc4c3[nH]c3ccccc43)cccc2c1 (stereo unspecified) | – | inconclusive: 1.64 µM [activator, partial curve, poor fit]
48 | CC(C)CN(C(=O)Cn1nnc(-c2ccc(F)cc2)n1)C1CCS(=O)(=O)C1 (stereo unspecified) | – | inconclusive: 14.6 µM [activator, single point]

Look-ups from the entries so far.
re-replication activation with `CCOc1ccc(NC(=O)/C=C/c2ccc(OC)cc2)c([N+](=O)[O-])c1` reads inactive: -7.05%
re-replication activation with `COc1ccc(/C=N/N2C(=O)CSC2=S)cc1Br` reads inactive: -3.78%
Potency with `CN(Cc1nc(-c2ccc(Cl)cc2)no1)C(=O)CCN1C(=O)[C@H]2CC=CC[C@H]2C1=O` reads inconclusive: 29.1 µM [activator, single point]
Potency with `c1cnc2c(C3NCCc4c3[nH]c3ccccc43)cccc2c1` (stereo unspecified) reads inconclusive: 1.64 µM [activator, partial curve, poor fit]

The list goes on:

Row | Compound | re-replication activation | Potency
49 | CCOc1ccc(NC(=O)CN(C)C(=O)COc2cccc3c2OC(C)(C)C3)cc1OCC | – | inconclusive: 6.51 µM [activator, single point]
50 | O=C1[C@@H](Oc2ccccc2)[C@@H](c2cccnc2)N1c1ccccc1 | – | inconclusive: 16.4 µM [activator, single point]
51 | O=C(CCN1CCC(c2ccccc2)C1)c1ccccc1 (stereo unspecified) | – | inconclusive: 16.4 µM [activator, single point]
52 | CCOc1cc(/C=N/Nc2cccc(C(=O)O)c2)ccc1OCC(=O)N1CCCCC1 | inactive: -10.6% | –
53 | CCc1ccc(N/C(SCc2cccc(F)c2)=C(/C#N)C(=O)NCc2ccco2)cc1 | – | inconclusive: 29.1 µM [activator, partial curve, poor fit]
54 | CCN(CC)CCOc1ccc(-c2nc3cc(Cl)ccc3s2)cc1 | – | active: 18.8 µM
55 | Cc1cccc(NC(=O)N[C@@H](C)C(=O)O)c1 | inactive: -4.32% | –
56 | Cn1c(=O)c2c(nc(NCCc3ccccc3)n2CC(=O)NCCc2ccccc2)n(C)c1=O | inactive: -9.05% | –
57 | COCCCN(C(=O)c1ccccc1F)c1nc(-c2ccc(OC)cc2)cs1 | inactive: 3.27% | –
58 | Oc1ccc(N2CCN(c3nc(-c4cccs4)nc4ccccc34)CC2)cc1 | – | inconclusive: 29.1 µM [activator, single point]
59 | CC(C)(C)c1ccc(/C=C2\Oc3cc(O)ccc3C2=O)cc1 | – | active: 20.6 µM
60 | Cc1nc(NC(=O)C2CCCC2)sc1Cc1ccc2c(c1)OCO2 | – | inconclusive: 18.4 µM [activator, partial curve, poor fit]
61 | CN1C(=O)/C(=C/c2cc3c(cc2Br)OCO3)NC1=S | inactive: -4.51% | –
62 | CCc1ccccc1C1=CC(=O)C[C@H](c2ccc(OC)cc2)C1 | inactive: -2.8% | –
63 | C=CCn1c(=O)[nH]c(=O)c2c(N)c(C(=O)c3ccc(OC)cc3)sc21 | inactive: 4.49% | –
64 | CCc1ccc(C(=O)NNc2ccccc2F)cc1 | – | inconclusive: 23.1 µM [activator, single point]
65 | Cc1ccc(C(=O)N/C(=C\c2ccc(-c3cccc([N+](=O)[O-])c3)o2)C(=O)NCCCN2CCOCC2)cc1 | – | inconclusive: 16.4 µM [activator, single point]
66 | O=C(COc1cc(F)ccc1[N+](=O)[O-])Nc1ccc(N2CCCCC2)cc1 | inactive: 16.5% | –
67 | CCOC(=O)c1c(N/N=C/c2cccnc2)n[nH]c1C | – | inconclusive: 18.4 µM [activator, single point]
68 | Cc1nn(Cc2ccc(Cl)cc2)c(C)c1NC(=O)c1cc(-c2ccc3c(c2)OCO3)on1 | – | inconclusive: 18.4 µM [activator, single point]
69 | C=CC(C)N1C(=O)S/C(=C\c2ccc(N3CCOCC3)cc2C)C1=O (stereo unspecified) | – | inconclusive: 29.1 µM [activator, single point]
70 | Cc1nn(C)cc1C(=O)Nc1ccc2c(c1)OCCO2 | inactive: -9.34% | –
71 | COc1ccc(-c2noc(C)c2-c2ccc3ccccc3n2)c(O)c1 | – | active: 4.61 µM
